Assay results from publication PMC6520003.
Results are given in words; binding and its absence hold for the method and conditions named. In cells and extracts the contact can be indirect. Some entries that bind do so weakly or less than the wild type.

What was measured:
[1] = molecular target: T1, G-protein Gnα11 (mouse (endogenous in HT22)) (UniProt P21278); assay: proximity ligation; Duolink PLA in fixed, permeabilised HT22 cells with rabbit anti-ZIP9 and mouse anti-Gnα11; cells treated with T-BSA after nc-shRNA, ZIP9-shRNA or Gnα11-shRNA
T1 sequence: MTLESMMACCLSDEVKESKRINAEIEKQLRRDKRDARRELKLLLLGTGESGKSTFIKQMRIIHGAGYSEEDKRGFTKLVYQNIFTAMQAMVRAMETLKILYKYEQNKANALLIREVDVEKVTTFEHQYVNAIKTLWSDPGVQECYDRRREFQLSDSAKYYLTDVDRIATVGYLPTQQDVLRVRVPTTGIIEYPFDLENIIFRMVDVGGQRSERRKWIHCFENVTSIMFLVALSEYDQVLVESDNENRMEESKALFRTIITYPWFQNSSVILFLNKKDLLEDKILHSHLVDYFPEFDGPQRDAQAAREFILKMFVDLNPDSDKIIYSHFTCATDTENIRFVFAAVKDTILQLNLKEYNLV

[2] = molecular target: T1, G-protein Gnα11 (mouse (endogenous in HT22)); assay: co-IP; HT22 cell lysate (IP Lysis/Wash Buffer) after T-BSA treatment; mouse anti-Gnα11 antibody or control mouse IgG overnight at 4 °C, Protein A/G magnetic beads; blot with rabbit anti-ZIP9 and mouse anti-Gnα11

B1: G-protein-coupled receptor (GPCR)-zinc transporter ZIP9 (SLC39A9) (protein, UniProt Q8BFU1 1-308)
chain: MDDFLSISLLSVAMLVGCYVAGIIPLAVNFSEERLKLVTVLGAGLLCGTALAVIVPEGVHALYEEVLEGKHHQTSEMKQNGIASDKAAEISSVHEHEHSHDHTQLHAYIGVSLVLGFVFMLLVDQIGSSHVHSSDDPETARPSSSKITTTLGLVVHAAADGVALGAAASTSQTSVQLIVFVAIMLHKAPAAFGLVSFLMHAGLERNRIRKHLLVFALAAPAMSMLTYLGLSKSSKEALSEVNATGVAMLFSAGTFLYVATVHVLPEVGGMGHSHKPDTTGGRGLSRLEVAALVLGCLIPLILSIGHQH
B1 was tested, and the binding [1] was “binds” and the binding [2] was “binds”.
